Source: PMC6778148
Results are given in words; binding and its absence hold for the method and conditions named. Some binding calls cover weakened binding; strength is not graded here. Sequences can lack the tags named with a protein.

Columns and labels:
[1] = molecular target: [15N]PSD-95-12, NMR sample (His tag removed) (rat); assay: NMR titration; 15N-HSQC of 80 µM 15N-labelled tandem PDZ domains, free and after addition of 100 µM natural abundance Xph clone; PBS, 298 K, 700 MHz; both purified
[2] = molecular target: biotinylated PSD-95-12, from pbIG (rat); assay: SPR; Biacore X100, single cycle kinetics; biotinylated tandem PDZ domains captured (ligand, about 100-220 RU), Xph clone as analyte (five two-fold dilutions up to 2 µM, 1 µM or 500 nM); biphasic curves, qualitative only; both purified
[3] = molecular target: PSD-95 PDZ domain 1 (PSD-95-1), NMR sample (rat); assay: NMR titration; 15N-HSQC of 100 µM [15N]PSD-95-1 or [15N]PSD-95-2, free and after addition of 120 µM natural abundance Xph clone; PBS, 298 K, 700 MHz; both purified

Binder | binding [1] | binding [2] | binding [3]
Xph15 with C-terminal SUMO fusion, from pET-SUMOc (designed binder) SSVSSVPTKLEVVAATPTSLLISWDAGPRNVSYYRITYGETGGNSPVQEFTVPGSSSTATISGLSPGVDYTITVYASGHVSTLMTPISINYRT | binds | binds | 
Xph18 with C-terminal SUMO fusion, from pET-SUMOc (designed binder) SSVSSVPTKLEVVAATPTSLLISWDAHSRMAWVNYYRITYGETGGNSPVQEFTVPGSSSTATISGLSPGVDYTITVYANGGGFRRGMAPISINYRT | binds | binds | 
Xph20 with C-terminal SUMO fusion, from pET-SUMOc (designed binder) SSVSSVPTKLEVVAATPTSLLISWDAVAKNVKVGYYRITYGETGGNSPVQEFTVPGSSSTATISGLSPGVDYTITVYANGVLSKMVLPISINYRT | binds | binds | binds
